Test results: article PMC6473003

Target: T1, Myc-TRIM56 (UniProt Q9BRZ2)
T1 sequence: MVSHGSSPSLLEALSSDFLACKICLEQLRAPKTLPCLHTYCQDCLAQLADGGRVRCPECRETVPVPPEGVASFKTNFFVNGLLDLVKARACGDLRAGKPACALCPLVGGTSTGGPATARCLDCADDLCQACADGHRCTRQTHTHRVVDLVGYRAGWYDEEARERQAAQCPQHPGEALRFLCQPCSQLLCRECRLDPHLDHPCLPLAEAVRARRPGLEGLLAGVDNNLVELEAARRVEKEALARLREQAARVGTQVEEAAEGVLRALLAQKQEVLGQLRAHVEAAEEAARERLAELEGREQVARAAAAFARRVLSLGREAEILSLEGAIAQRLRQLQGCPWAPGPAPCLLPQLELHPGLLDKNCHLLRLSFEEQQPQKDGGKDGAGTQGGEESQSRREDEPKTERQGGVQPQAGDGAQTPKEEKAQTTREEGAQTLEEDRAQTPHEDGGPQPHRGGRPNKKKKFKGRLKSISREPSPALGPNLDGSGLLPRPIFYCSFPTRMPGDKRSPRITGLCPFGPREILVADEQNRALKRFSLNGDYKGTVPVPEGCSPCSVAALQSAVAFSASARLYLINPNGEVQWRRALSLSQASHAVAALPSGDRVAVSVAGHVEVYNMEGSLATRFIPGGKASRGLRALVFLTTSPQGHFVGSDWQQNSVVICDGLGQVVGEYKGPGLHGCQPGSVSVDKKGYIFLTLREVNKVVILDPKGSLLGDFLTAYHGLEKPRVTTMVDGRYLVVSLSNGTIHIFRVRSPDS
Assay: co-IP; HEK293 cells transfected with Myc-TRIM56 and HA-ER alpha full length or mutants, NP-40 lysis buffer after 24 h, IP with Myc antibody, blot with HA antibody

Row | Substance | binding
1 | HA-ER alpha ΔAF2+ΔDBD (human) (domain or fragment) | binds
2 | HA-ER alpha ΔAF2 (human) (domain or fragment) | binds

Results are given in words; binding and its absence hold for the method and conditions named. In cells and extracts the contact can be indirect. Binding calls can cover weak binding; strength is not graded here. Tags and fused reporters may be left off the sequences shown.
